{"source": "PubChem BioAssay AID493246 (Drosophila RNAi Screening Center, 2011)", "screen": "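Genes fly cells need to grow and stay alive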 (primary screen)", "cells": "Drosophila Kc and S2R+ cells", "reagents": "long dsRNA against Drosophila genes", "detection": "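Raw, unnormalised count of remaining cells in each well; per-plate z-scores of cell number underlie the calls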", "scale": "Kc cell number and S2R+ cell number: higher = more cells remaining", "active means": "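Counted as a hit if cell number falls by a z-score of at least 3 within its plate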", "note": "In all, the deposit lists about 21,000 reagents; this is a random part of those that have a named target and a result. In the full data, 429 (2%) got an active call. 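Values are raw and not normalised between plates; calls rest on per-plate z-scores that were not deposited.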 Unmarked entries are inactive. Not given: the amount of reagent, the time to read-out."}
{"gene": "ocn", "dsRNA": "DRSC17020", "Kc cell number, rep 1": 1.52e6, "Kc cell number, rep 2": 1.56e6, "S2R+ cell number, rep 1": 1.14e6, "S2R+ cell number, rep 2": 1.23e6}
{"gene": "Cdc14", "dsRNA": "DRSC03013", "Kc cell number, rep 1": 1.61e6, "Kc cell number, rep 2": 1.61e6, "S2R+ cell number, rep 1": 1.14e6, "S2R+ cell number, rep 2": 1.26e6}
{"gene": "Ten-a", "dsRNA": "DRSC18924", "Kc cell number, rep 1": 1.15e6, "Kc cell number, rep 2": 1.50e6, "S2R+ cell number, rep 1": 1.09e6, "S2R+ cell number, rep 2": 1.09e6}
{"gene": "Ten-a", "dsRNA": "DRSC19496", "Kc cell number, rep 1": "9.21e5 (active)", "Kc cell number, rep 2": 8.29e5, "S2R+ cell number, rep 1": 4.74e5, "S2R+ cell number, rep 2": 5.92e5}
{"gene": "Ten-a", "dsRNA": "DRSC19700", "Kc cell number, rep 1": 1.51e6, "Kc cell number, rep 2": 1.57e6, "S2R+ cell number, rep 1": 1.09e6, "S2R+ cell number, rep 2": 1.28e6}
{"gene": "Ten-a", "dsRNA": "DRSC19793", "Kc cell number, rep 1": 1.66e6, "Kc cell number, rep 2": 1.56e6, "S2R+ cell number, rep 1": 1.14e6, "S2R+ cell number, rep 2": 1.25e6}
{"gene": "Ten-a", "dsRNA": "DRSC19864", "Kc cell number, rep 1": 1.62e6, "Kc cell number, rep 2": 1.51e6, "S2R+ cell number, rep 1": 1.15e6, "S2R+ cell number, rep 2": 1.29e6}
{"gene": "Ten-a", "dsRNA": "DRSC19865", "Kc cell number, rep 1": 1.67e6, "Kc cell number, rep 2": 1.57e6, "S2R+ cell number, rep 1": 1.14e6, "S2R+ cell number, rep 2": 1.29e6}
{"gene": "Ten-a", "dsRNA": "DRSC20290", "Kc cell number, rep 1": 1.60e6, "Kc cell number, rep 2": 1.56e6, "S2R+ cell number, rep 1": 1.11e6, "S2R+ cell number, rep 2": 1.26e6}
{"gene": "wcy", "dsRNA": "DRSC20132", "Kc cell number, rep 1": 1.62e6, "Kc cell number, rep 2": 1.65e6, "S2R+ cell number, rep 1": 9.26e5, "S2R+ cell number, rep 2": 9.80e5}
{"gene": "Eig71Ec", "dsRNA": "DRSC11150", "Kc cell number, rep 1": 1.25e6, "Kc cell number, rep 2": 1.51e6, "S2R+ cell number, rep 1": 1.30e6, "S2R+ cell number, rep 2": 1.41e6}
{"gene": "Rab30", "dsRNA": "DRSC03137", "Kc cell number, rep 1": 1.49e6, "Kc cell number, rep 2": 1.39e6, "S2R+ cell number, rep 1": 1.22e6, "S2R+ cell number, rep 2": 1.34e6}
